Values from PubChem BioAssay AID1259405 (NCATS, 2018)
Screen: 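Silenced genes that increase secreted GFP made by CHO cells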 (primary screen). System: Chinese hamster CHO-K1 ovary cells with stable secreted eGFP expression. Knock-down reagent: single siRNA against mouse genes, 0.8 pmol siRNA per well (2 µl of 400 nM stock). Time to read-out: 3 days. Measurement: 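Per-well intracellular GFP measured by laser scanning cytometry, plus viability from ATP luminescence, each relative to plate median of non-targeting control wells, in %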. Reading the numbers: GFP, % of control: higher = more GFP per well, higher productivity; viability (ATP), % of control: higher = more viable cells (more ATP). Call rule: 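a knock-down is called active if GFP reaches 120% or more of non-targeting control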.
Shown is an unselected part of about 50,000 reagents tested. About 4,000 of all reagents (8%) were called active. 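Mouse siRNA library applied to hamster cells; one well for each siRNA.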 Unmarked entries are inactive. The numbers tell different reagents against one gene apart.

| GFP, % of control | viability (ATP), % of control | gene | reagent no. |
| --- | --- | --- | --- |
| 49.2 | 74.5 | Serpina12 | 1 |
| 35.5 | 60.2 | Serpina12 | 2 |
| 112 | 86.7 | Serpina12 | 3 |
| 61.3 | 83.6 | Pld3 (phospholipase D family member 3) | 1 |
| 90.9 | 92.9 | Pld3 (phospholipase D family member 3) | 2 |
| 44.4 | 60.2 | Pld3 (phospholipase D family member 3) | 3 |
| 61.3 | 73.7 | Hhex (hematopoietically expressed homeobox) | 1 |
| 96.4 | 88.4 | Hhex (hematopoietically expressed homeobox) | 2 |
| 66.7 | 59.9 | Hhex (hematopoietically expressed homeobox) | 3 |
| 86.9 | 102 | Zgrf1 (zinc finger, GRF-type containing 1) | 1 |
| 68.7 | 79.2 | Zgrf1 (zinc finger, GRF-type containing 1) | 2 |
| 89.6 | 82 | Zgrf1 (zinc finger, GRF-type containing 1) | 3 |
| 30.1 | 38 | Arid3b (AT-rich interaction domain 3B) | 1 |
| 110 | 118 | Arid3b (AT-rich interaction domain 3B) | 2 |
| 70 | 41.9 | Synj2bp (synaptojanin 2 binding protein) | 1 |
| 80.8 | 107 | Synj2bp (synaptojanin 2 binding protein) | 2 |
| 137 (active) | 143 | Synj2bp (synaptojanin 2 binding protein) | 3 |
| 80.2 | 51.4 | Lsm14b (LSM family member 14B) | 1 |
| 80.6 | 79.3 | Lsm14b (LSM family member 14B) | 2 |
| 103 | 121 | Lsm14b (LSM family member 14B) | 3 |
| 88.1 | 90.1 | Usp4 (ubiquitin specific peptidase 4) | 1 |
| 82.9 | 79.9 | Usp4 (ubiquitin specific peptidase 4) | 2 |
| 37.4 | 35.6 | Usp4 (ubiquitin specific peptidase 4) | 3 |
| 63.7 | 85.6 | Ltb4r1 (leukotriene B4 receptor 1) | 1 |
| 69.4 | 73.3 | Ltb4r1 (leukotriene B4 receptor 1) | 2 |
| 71.4 | 70.9 | Ltb4r1 (leukotriene B4 receptor 1) | 3 |
| 69.5 | 76.9 | Tbl2 (transducin (beta)-like 2) | 1 |
| 89.3 | 103 | Tbl2 (transducin (beta)-like 2) | 2 |
| 124 (active) | 123 | Tbl2 (transducin (beta)-like 2) | 3 |
| 39.6 | 69.9 | Hnrnpul1 (heterogeneous nuclear ribonucleoprotein U-like 1) | 1 |
| 83 | 82.1 | Hnrnpul1 (heterogeneous nuclear ribonucleoprotein U-like 1) | 2 |
| 102 | 88.5 | Hnrnpul1 (heterogeneous nuclear ribonucleoprotein U-like 1) | 3 |
| 65.2 | 62.6 | Htr1d (5-hydroxytryptamine (serotonin) receptor 1D) | 1 |
| 92.7 | 88.8 | Htr1d (5-hydroxytryptamine (serotonin) receptor 1D) | 2 |
| 59.9 | 69.8 | Htr1d (5-hydroxytryptamine (serotonin) receptor 1D) | 3 |
| 75.5 | 59 | Hemgn (hemogen) | 1 |
| 106 | 81.3 | Hemgn (hemogen) | 2 |
| 107 | 76.8 | Hemgn (hemogen) | 3 |
| 58.6 | 86.7 | Gm5142 (predicted gene 5142) | 1 |
| 79.2 | 90.7 | Gm5142 (predicted gene 5142) | 2 |
| 55.5 | 75.6 | Gm5142 (predicted gene 5142) | 3 |
| 65.4 | 35.2 | Or5aq1b (olfactory receptor family 5 subfamily AQ member 1B) | 1 |
| 49.2 | 75.6 | Or5aq1b (olfactory receptor family 5 subfamily AQ member 1B) | 2 |
| 23.1 | 34.2 | Or5aq1b (olfactory receptor family 5 subfamily AQ member 1B) | 3 |
| 84.8 | 99.7 | Gfpt1 (glutamine fructose-6-phosphate transaminase 1) | 1 |
| 64.3 | 71.9 | Gfpt1 (glutamine fructose-6-phosphate transaminase 1) | 2 |
| 66.5 | 68 | Gfpt1 (glutamine fructose-6-phosphate transaminase 1) | 3 |
| 105 | 53.9 | Lce1b (late cornified envelope 1B) | 1 |
| 69.9 | 71 | Lce1b (late cornified envelope 1B) | 2 |
| 116 | 99.5 | Lce1b (late cornified envelope 1B) | 3 |
| 78.7 | 87.7 | 4933411G06Rik (RIKEN cDNA 4933411G06 gene) | 1 |
| 92.3 | 82.9 | 4933411G06Rik (RIKEN cDNA 4933411G06 gene) | 2 |
| 110 | 127 | 4933411G06Rik (RIKEN cDNA 4933411G06 gene) | 3 |

Next part (9 carried over from the part before).
| GFP, % of control | viability (ATP), % of control | gene | reagent no. |
| --- | --- | --- | --- |
| 84.8 | 99.7 | Gfpt1 (glutamine fructose-6-phosphate transaminase 1) | 1 |
| 64.3 | 71.9 | Gfpt1 (glutamine fructose-6-phosphate transaminase 1) | 2 |
| 66.5 | 68 | Gfpt1 (glutamine fructose-6-phosphate transaminase 1) | 3 |
| 105 | 53.9 | Lce1b (late cornified envelope 1B) | 1 |
| 69.9 | 71 | Lce1b (late cornified envelope 1B) | 2 |
| 116 | 99.5 | Lce1b (late cornified envelope 1B) | 3 |
| 78.7 | 87.7 | 4933411G06Rik (RIKEN cDNA 4933411G06 gene) | 1 |
| 92.3 | 82.9 | 4933411G06Rik (RIKEN cDNA 4933411G06 gene) | 2 |
| 110 | 127 | 4933411G06Rik (RIKEN cDNA 4933411G06 gene) | 3 |
| 37.8 | 36.9 | Lmna (lamin A) | 1 |
| 80.2 | 81.1 | Lmna (lamin A) | 2 |
| 49.3 | 57 | Lmna (lamin A) | 3 |
| 73.1 | 57.1 | Hmgxb3 (HMG box domain containing 3) | 1 |
| 38.4 | 23.1 | Hmgxb3 (HMG box domain containing 3) | 2 |
| 61.3 | 65.9 | Hmgxb3 (HMG box domain containing 3) | 3 |
| 67.6 | 48 | Clvs1 (clavesin 1) | 1 |
| 77.9 | 94.6 | Clvs1 (clavesin 1) | 2 |
| 106 | 115 | Clvs1 (clavesin 1) | 3 |
| 89.8 | 86.7 | Tcp11x2 (t-complex 11 family, X-linked 2) | 1 |
| 81.9 | 82.1 | Tcp11x2 (t-complex 11 family, X-linked 2) | 2 |
| 105 | 97.2 | Tcp11x2 (t-complex 11 family, X-linked 2) | 3 |
| 59.9 | 92 | Luc7l (Luc7-like) | 1 |
| 104 | 72.7 | Luc7l (Luc7-like) | 2 |
| 140 (active) | 44.9 | Luc7l (Luc7-like) | 3 |
| 84.1 | 66.2 | Or7g19 (olfactory receptor family 7 subfamily G member 19) | 1 |
| 82.6 | 72.6 | Or7g19 (olfactory receptor family 7 subfamily G member 19) | 2 |
| 102 | 77.2 | Or7g19 (olfactory receptor family 7 subfamily G member 19) | 3 |
| 54.2 | 59.4 | Il12rb2 (interleukin 12 receptor, beta 2) | 1 |
| 83.8 | 73.8 | Il12rb2 (interleukin 12 receptor, beta 2) | 2 |
| 49.8 | 52.7 | Il12rb2 (interleukin 12 receptor, beta 2) | 3 |
| 109 | 61.8 | Chrm4 (cholinergic receptor, muscarinic 4) | 1 |
| 58.1 | 79.2 | Chrm4 (cholinergic receptor, muscarinic 4) | 2 |
| 68.3 | 63.1 | Chrm4 (cholinergic receptor, muscarinic 4) | 3 |
| 75.9 | 73.8 | Ift22 (intraflagellar transport 22) | 1 |
| 57.7 | 69.2 | Ift22 (intraflagellar transport 22) | 2 |
| 67.8 | 79.2 | Ift22 (intraflagellar transport 22) | 3 |
| 54.1 | 65.8 | Tdrd7 (tudor domain containing 7) | 1 |
| 75.4 | 70.3 | Tdrd7 (tudor domain containing 7) | 2 |
| 59.6 | 48 | Tdrd7 (tudor domain containing 7) | 3 |
| 107 | 142 | Acmsd (amino carboxymuconate semialdehyde decarboxylase) | 1 |
| 65.7 | 64.8 | Acmsd (amino carboxymuconate semialdehyde decarboxylase) | 2 |
